Our source for the binding values is PMC4303303.

The chains behind the UniProt entries cited, without tags or fusion partners.
UniProt G5E870: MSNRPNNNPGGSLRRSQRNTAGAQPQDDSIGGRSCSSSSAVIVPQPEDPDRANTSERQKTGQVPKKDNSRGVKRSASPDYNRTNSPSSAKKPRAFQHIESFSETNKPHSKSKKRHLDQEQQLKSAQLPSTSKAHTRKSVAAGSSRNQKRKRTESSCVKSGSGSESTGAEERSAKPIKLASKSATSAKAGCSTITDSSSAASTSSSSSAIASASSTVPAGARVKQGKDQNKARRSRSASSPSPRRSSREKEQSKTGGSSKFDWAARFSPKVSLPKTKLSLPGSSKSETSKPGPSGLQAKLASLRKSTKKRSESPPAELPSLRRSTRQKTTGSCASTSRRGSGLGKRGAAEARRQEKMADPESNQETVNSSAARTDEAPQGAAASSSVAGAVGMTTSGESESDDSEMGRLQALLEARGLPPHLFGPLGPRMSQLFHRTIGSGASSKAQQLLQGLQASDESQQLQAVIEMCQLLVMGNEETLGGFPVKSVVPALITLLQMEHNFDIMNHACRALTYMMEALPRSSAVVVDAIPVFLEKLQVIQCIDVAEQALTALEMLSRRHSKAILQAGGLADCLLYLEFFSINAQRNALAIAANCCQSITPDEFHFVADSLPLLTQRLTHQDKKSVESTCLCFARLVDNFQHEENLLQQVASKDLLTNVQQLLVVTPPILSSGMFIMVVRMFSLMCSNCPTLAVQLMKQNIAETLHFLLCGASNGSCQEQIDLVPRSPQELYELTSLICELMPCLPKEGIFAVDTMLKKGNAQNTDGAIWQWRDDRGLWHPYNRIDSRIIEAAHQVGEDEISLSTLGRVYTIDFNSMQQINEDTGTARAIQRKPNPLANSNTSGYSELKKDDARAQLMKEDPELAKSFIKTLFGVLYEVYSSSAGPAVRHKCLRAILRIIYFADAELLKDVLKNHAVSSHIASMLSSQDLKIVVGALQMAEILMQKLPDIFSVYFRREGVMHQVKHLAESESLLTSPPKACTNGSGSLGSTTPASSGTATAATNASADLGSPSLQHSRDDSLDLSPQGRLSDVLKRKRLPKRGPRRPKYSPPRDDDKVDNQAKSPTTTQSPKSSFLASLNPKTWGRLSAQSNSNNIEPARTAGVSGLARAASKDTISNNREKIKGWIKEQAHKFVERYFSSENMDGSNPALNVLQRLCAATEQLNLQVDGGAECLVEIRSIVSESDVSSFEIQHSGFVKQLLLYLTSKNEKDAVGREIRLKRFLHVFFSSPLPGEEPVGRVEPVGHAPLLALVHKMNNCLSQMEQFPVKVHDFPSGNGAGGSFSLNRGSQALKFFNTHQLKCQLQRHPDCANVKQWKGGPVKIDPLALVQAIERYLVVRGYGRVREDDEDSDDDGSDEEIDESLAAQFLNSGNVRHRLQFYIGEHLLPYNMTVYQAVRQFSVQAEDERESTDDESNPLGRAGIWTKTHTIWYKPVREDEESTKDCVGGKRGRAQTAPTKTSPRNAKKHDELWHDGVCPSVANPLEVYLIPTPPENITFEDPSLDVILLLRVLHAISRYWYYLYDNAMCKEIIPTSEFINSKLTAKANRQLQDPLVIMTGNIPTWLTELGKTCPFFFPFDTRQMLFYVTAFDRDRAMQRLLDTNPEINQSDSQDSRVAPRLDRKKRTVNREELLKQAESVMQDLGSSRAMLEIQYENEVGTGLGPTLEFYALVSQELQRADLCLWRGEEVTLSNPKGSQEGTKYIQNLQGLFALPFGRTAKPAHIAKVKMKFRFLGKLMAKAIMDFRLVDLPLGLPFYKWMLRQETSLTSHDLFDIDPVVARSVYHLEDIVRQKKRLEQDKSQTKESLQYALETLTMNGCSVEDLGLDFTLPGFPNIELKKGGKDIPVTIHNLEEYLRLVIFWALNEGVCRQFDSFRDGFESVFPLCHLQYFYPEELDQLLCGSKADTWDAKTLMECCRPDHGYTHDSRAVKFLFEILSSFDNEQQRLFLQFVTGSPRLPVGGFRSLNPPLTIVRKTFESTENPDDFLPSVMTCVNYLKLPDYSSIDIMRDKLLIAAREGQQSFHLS
UniProt P97496: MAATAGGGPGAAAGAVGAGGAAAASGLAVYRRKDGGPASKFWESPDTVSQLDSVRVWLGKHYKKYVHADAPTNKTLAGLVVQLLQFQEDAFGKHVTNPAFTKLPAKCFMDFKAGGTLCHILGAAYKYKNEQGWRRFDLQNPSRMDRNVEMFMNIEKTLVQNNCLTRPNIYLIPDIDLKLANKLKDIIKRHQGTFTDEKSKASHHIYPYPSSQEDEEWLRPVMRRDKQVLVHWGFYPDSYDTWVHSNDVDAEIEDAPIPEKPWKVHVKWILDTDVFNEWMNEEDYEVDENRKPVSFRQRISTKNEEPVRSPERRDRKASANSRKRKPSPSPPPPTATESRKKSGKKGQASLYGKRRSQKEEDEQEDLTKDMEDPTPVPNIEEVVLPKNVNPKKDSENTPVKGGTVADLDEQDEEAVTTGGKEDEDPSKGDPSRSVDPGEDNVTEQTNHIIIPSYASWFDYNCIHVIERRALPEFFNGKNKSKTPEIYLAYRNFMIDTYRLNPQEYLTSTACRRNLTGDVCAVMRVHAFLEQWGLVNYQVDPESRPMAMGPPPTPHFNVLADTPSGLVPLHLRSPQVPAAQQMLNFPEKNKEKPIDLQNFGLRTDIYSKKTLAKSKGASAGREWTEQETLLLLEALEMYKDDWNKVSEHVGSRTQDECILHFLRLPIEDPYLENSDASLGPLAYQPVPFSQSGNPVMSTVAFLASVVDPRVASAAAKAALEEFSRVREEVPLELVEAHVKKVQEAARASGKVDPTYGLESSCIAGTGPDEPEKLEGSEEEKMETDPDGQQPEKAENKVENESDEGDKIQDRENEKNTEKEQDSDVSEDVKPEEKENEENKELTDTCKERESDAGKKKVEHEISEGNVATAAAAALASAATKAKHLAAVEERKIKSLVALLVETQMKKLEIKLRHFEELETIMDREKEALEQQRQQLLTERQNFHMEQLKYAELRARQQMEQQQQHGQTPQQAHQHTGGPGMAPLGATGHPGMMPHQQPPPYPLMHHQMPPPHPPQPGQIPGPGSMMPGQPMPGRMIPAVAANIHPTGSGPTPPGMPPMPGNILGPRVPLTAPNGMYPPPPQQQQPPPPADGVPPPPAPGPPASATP

These are yes or no findings as the source states them, for the method shown. In cells and extracts the contact can be indirect. Here binding means that the protein was enriched with, or labelled near, the bait; the list need not be complete.

Sequences and labels used below:
B1: Nup155 (protein, UniProt Q99P88 1-1391)
chain: MPSVLGSMMVASTSAAASLQEALENAGRLIDRQLQEDRMYPDLSELLMVSAPNSPTVSGMSDMDYPLQGPGLLSVPSLPEISTIRRVPLPPELVEQFGHMQCNCMMGVFPPISRAWLTIDSDIFMWNYEDGGDLAYFDGLSETILAVGLVKPKAGIFQPHVRHLLVLATPVDIVILGLSYANVQTGSGILNDSMCGGMQLLPDPLYSLPTDNTYLLTITSTDNGRIFLAGKDGCLYEVAYQAEAGWFSQRCRKINHSKSSLSFLVPSLLQFTFSEDDPIVQIEIDNSRNILYTRSEKGVIQVYDLGHDGQGMSRVASVSQNAIVSAAGNIARTIDRSVFKPIVQIAVIESSESLDCQLLAVTHAGVRLYFSTCPFRQPLARPNTLTLVHVRLPPGFSASSTVEKPSKVHKALYSKGILLMTASENEDNDILWCVNHDTFPFQKPMMETQMTTRVDGHSWALSAIDELKVDKIITPLNKDHIPITDSPVVVQQHMLPPKKFVLLSAQGSLMFHKLRPVDQLRHLLVSNVGGDGEEIERFFKLHQEDQACATCLILACSTAACDREVSAWATRAFFRYGGEAQMRFPATLPTPSNVGPILGSPMYSSSPVPSGSPYPNPSSLGTPSHGAQPPTMSTPMCAVGSPAMQAASMSGLTGPEIVYSGKHNGICIYFSRIMGNIWDASLVVERVFKSSNREITAIESSVPVQLLESVLQELKGLQEFLDRNSQFSGGPLGNPNTTARVQQRLVGFMRPENGNTQQMQQELQRKFQEAQLSEKISLQAIQQLVRKSYQALALWKLLCEHQFSVIVGELQKEFQEQLKITTFKDLVIRDKEVTGALIASLINCYIRDNAAVDGISLHLQDTCPLLYSTDDAVCSKANELLQRSRQVQSKTERERMLRESLKEYQKISNQVDLPSVCAQYRQVRFYEGVVELSLTAAEKKDPQGLGLHFYKHGEPEEDVVGLQTFQERLNSYKCITDTLQELVNQSKAAPQSPSVPKKPGPPVLSSDPNMLSNEEAGHHFEQMLKLAQRSKDELFSIALYNWLIQADLADKLLQIASPFLEPHLVRMARVDQNRVRYMDLLWRYYEKNRSFSSAARVLSKLADMHSTEISLQQRLEYIARAILSAKSSTAISSIAADGEFLHELEEKMEVARIQLQIQETLQRQYSHHSSVQDAISQLDSELMDITKLYGEFADPFKLAECKLAVIHCAGYSDPILVHTLWQDIIEKELNDSVALSSSDRMHALSLKLVLLGKIYAGTPRFFPLDFIVQFLEQQVCTLNWDVGFVIQTMNEIGVPLPRLLEVYDQLFKSRDPFWNRVKSPLHLLDCIHVLLTRYVENPSLVLNCERRRFTNLCLDAVCGYLVELQSMSSSVAVQAITGNFKSLQAKLERLH
B2: MCM5 (protein, UniProt P49718 1-734)
chain: MSGFDDPGIFYSDSFGGDPGAEEGQARKSQLQRRFKEFLRQYRVGTDRTGFTFKYRDELKRHYNLGEYWIEVEMEDLASFDEELADHLHKQPAEHLQLLEEAAKEVADEVTRPRPAGDELLQDIQVMLKSDASPSSIRILKSDMMSHLVKIPGIIISASAVRAKATRISIQCRSCHNTLTNIAMRPGLEGYALPRKCNMDQAGRPKCPLDPYFIMPDKCKCVDFQTLKLQELPDAVPHGEMPRHMQLYCDRYLCDKVVPGNRVTIMGIYSIKKFGLNPSKGRDRVGVGIRSSYIRVLGIQVDTDGSGRSFAGSVSPQEEEEFRRLAALPNIYELISKSISPSIFGGMDMKKAIACLLFGGSRKRLPDGLTRRGDINLLMLGDPGTAKSQLLKFVEKCSPIGVYTSGKGSSAAGLTASVIRDPSSRNFIMEGGAMVLADGGVVCIDEFDKMREDDRVAIHEAMEQQTISIAKAGITTTLNSRCSVLAAANSVFGRWDETKGEDNIDFMPTILSRFDMIFIVKDEHNEERDMMLAKHVMTLHVSALTQTQAVEGEIDLAKMKKFIAYCRARCGPRLSAEAAEKLKNRYIIMRSGARQHERDSDRRSSIPITVRQLEAIVRIAEALSKMKLQPFATEADVEEALRLFQVSTLDAALSGNLSGVEGFTTQEDQEMLSRIEKQLKRRFAIGSQVSEHSIVQDFTKQKYPEHAIRKVLQLMLRRGEIQHRMQRKVLYRLK
B3: ZFP161 (protein, UniProt Q08376 1-449)
chain: MEFFISMSETIKYNDDDHKTLFLKTLNEQRLEGEFCDIAIVVEDVKFRAHRCVLAACSTYFKKLFKKLEVDSSSVIEIDFLRSDIFEEVLNYMYTAKISVKKEDVNLMMSSGQILGIRFLDKLCSQKRDVSSPDESNGQSKSKYCLKLNRPIGDAADAQDDDVEEIGDQDDSPSDDTVEGTPPSQEDGKSPTTTLRVQEAILKELGSEEVRKVNCYGQEVESMETPESKDLGSQTPQALTFNDGMSEVKDEQTPGWTTAASDMKFEYLLYGHHREQIACQACGKTFSDEGRLRKHEKLHTADRPFVCEMCTKGFTTQAHLKEHLKIHTGYKPYSCEVCGKSFIRAPDLKKHERVHSNERPFACHMCDKAFKHKSHLKDHERRHRGEKPFVCGSCTKAFAKASDLKRHENNMHSERKQVTPSAIQSETEQLQAAAMAAEAEQQLETIACS

The test deals with SETDB1 (mouse (endogenous in TT2 mESCs)) (UniProt O88974). The test is described as follows: affinity purification with mass spectrometry; IP of endogenous SETDB1 (anti-SETDB1 H300 crosslinked to protein G sepharose) against rabbit IgG from the 0.5 M KCl anionic column fraction (depleted of SENP1) of TT2 mESC nuclear extract prepared without NEM; overnight at 4°C; LC-MS/MS.
For the molecule TRIP12 (from UniProt G5E870 1-2025), the binding entry is on record as “binds”. Take BAF155 (from UniProt P97496 1-1104): the binding entry is “binds”. As for B1, the entry is “binds”; as for B2, “binds”; as for B3, “binds”.
